Laboratory results from article PMC9360328.

Amino acid sequences for entries named in this document (tags omitted). Residues count along the entry.
UniProt Q05066, 56-141: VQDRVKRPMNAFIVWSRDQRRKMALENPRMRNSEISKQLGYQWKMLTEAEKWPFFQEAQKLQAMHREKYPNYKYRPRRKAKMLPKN

Molecular target: SRY HMG box WT (Homo sapiens) (UniProt Q05066)
Experiment: CD thermal unfolding of equimolar complex
Conditions: 25 uM (Methods), complex stable at 37 C; PGE: 10 nM DNA, 20 nM protein, 0.5x TBE, 4 C; recombinant protein

## TCGGTGATTGTTCAG (double strand) [15-bp consensus SRY site, unlabeled]
  binding result: binds

For at least one entry, the source does not settle the construct or the ends of the probe. At least one verdict was read from the data and is not stated in words by the source.
